This list holds what a sample rich in targets with a hit left over. This is a noisy data set. The list shows a part of the results, in another mix than the full data.

Sequences of proteins named here, by UniProt entry; tags and fusion partners are left off. A change or cut given only in a name is not applied to a line headed by its entry.
UniProt Q32MZ4: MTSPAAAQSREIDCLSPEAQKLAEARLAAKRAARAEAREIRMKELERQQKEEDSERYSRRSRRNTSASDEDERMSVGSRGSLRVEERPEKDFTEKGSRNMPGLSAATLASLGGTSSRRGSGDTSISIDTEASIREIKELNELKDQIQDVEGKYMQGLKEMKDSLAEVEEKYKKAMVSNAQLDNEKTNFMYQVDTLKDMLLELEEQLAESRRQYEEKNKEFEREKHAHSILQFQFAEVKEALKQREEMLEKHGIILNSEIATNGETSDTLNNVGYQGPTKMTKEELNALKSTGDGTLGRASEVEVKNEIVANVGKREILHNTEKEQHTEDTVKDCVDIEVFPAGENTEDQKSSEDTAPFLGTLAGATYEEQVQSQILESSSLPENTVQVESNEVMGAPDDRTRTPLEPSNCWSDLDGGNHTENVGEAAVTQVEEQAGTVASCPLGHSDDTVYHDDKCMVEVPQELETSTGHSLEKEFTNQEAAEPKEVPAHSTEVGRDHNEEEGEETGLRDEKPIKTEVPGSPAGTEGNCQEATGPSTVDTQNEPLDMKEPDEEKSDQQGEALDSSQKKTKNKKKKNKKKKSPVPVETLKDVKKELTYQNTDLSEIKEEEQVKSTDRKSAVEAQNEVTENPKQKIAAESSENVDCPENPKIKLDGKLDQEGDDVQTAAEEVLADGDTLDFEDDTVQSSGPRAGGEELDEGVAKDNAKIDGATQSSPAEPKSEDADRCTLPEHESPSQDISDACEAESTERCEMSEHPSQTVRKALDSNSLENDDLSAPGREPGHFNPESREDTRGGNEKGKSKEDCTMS
UniProt Q53RE8: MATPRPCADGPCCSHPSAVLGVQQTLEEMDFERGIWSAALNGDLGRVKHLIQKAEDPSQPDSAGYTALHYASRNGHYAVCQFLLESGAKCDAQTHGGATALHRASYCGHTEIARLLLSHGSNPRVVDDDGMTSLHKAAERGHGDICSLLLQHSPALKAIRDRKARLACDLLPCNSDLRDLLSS
UniProt Q53R41: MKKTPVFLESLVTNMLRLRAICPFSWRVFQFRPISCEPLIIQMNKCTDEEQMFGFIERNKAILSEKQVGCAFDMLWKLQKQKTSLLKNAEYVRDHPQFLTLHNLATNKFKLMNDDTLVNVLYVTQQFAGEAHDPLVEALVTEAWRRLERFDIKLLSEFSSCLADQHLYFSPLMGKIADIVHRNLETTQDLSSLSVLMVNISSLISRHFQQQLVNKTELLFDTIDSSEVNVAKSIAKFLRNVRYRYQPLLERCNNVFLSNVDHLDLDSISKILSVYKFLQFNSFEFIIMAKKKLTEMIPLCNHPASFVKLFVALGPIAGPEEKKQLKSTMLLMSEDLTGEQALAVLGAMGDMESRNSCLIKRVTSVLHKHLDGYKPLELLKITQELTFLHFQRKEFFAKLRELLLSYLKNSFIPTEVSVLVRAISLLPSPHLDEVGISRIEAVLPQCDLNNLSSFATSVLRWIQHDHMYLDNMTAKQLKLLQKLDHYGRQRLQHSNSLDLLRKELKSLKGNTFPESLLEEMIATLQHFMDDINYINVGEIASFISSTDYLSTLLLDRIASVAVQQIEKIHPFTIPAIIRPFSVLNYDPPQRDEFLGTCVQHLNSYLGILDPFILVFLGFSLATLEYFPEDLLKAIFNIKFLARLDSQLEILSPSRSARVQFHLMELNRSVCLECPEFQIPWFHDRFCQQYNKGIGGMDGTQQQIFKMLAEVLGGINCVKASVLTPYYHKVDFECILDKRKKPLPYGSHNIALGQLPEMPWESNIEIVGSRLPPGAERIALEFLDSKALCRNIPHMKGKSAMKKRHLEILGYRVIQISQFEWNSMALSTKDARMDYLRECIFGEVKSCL
UniProt Q15365, whole entry, looked up: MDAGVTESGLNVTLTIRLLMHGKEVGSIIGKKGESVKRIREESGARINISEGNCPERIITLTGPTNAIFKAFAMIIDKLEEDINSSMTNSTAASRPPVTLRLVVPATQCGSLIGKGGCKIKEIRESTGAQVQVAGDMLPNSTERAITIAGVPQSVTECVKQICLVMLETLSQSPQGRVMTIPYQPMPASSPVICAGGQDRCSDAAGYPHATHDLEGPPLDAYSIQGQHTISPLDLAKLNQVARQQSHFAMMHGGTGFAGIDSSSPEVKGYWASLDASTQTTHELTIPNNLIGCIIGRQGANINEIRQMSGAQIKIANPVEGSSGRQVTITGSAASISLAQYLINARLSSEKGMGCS
UniProt Q4VCS5: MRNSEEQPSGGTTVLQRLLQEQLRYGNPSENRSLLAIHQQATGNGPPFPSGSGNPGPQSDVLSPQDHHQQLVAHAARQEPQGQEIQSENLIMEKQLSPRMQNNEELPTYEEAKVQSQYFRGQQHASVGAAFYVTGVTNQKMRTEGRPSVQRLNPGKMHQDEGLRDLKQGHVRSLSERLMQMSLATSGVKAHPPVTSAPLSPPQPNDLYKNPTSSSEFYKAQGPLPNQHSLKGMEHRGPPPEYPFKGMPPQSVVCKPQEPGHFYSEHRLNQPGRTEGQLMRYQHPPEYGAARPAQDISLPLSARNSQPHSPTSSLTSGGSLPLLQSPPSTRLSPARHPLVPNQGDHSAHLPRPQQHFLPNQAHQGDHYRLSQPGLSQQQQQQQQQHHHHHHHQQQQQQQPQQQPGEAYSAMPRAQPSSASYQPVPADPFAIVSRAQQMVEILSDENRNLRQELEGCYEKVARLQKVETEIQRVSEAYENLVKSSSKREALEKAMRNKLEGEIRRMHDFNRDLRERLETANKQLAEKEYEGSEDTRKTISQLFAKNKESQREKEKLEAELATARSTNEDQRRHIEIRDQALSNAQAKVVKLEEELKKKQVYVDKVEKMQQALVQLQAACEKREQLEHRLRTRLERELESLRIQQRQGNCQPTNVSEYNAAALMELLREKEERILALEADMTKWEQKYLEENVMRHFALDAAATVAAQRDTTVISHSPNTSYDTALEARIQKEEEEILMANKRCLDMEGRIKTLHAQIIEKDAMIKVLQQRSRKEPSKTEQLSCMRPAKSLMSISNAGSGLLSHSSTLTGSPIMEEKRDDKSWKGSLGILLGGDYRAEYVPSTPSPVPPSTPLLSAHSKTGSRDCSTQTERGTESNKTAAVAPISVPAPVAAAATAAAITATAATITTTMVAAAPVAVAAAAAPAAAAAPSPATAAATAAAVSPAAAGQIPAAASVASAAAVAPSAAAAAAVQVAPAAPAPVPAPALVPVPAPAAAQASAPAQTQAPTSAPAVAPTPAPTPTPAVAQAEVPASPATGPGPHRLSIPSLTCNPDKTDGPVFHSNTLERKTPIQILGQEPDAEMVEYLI
UniProt Q4VC44: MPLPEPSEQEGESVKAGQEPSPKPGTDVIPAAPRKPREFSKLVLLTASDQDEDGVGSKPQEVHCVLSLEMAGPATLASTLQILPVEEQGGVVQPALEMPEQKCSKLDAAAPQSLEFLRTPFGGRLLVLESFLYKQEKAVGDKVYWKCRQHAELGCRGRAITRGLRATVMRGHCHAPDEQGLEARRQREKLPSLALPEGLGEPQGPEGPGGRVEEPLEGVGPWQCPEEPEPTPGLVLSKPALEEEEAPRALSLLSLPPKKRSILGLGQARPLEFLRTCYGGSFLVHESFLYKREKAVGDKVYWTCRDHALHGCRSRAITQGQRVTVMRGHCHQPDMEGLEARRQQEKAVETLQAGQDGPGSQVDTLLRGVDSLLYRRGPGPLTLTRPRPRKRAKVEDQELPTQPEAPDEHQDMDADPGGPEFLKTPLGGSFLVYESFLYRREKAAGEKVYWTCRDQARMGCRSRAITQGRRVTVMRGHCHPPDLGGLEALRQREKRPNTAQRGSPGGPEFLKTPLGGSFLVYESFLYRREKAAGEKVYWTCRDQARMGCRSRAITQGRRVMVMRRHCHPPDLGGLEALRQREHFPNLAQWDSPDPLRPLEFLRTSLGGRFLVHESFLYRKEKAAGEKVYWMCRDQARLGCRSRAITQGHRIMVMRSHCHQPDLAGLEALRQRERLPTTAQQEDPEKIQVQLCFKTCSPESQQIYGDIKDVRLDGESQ
UniProt Q2TAA2: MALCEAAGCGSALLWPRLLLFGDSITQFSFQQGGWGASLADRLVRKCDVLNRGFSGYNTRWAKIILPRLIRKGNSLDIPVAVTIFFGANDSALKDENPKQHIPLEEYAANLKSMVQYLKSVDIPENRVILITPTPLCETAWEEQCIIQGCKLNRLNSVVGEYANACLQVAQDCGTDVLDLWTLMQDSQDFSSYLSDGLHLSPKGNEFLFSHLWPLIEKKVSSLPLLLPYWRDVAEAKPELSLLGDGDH
UniProt Q15475: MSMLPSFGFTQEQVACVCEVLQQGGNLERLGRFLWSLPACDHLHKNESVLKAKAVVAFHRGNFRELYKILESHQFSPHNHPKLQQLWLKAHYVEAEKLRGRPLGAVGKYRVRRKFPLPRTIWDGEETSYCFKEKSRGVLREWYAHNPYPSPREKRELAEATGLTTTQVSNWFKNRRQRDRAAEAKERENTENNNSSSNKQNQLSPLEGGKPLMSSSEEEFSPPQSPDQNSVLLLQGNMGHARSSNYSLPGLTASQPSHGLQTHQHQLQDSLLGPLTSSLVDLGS
UniProt Q567V2: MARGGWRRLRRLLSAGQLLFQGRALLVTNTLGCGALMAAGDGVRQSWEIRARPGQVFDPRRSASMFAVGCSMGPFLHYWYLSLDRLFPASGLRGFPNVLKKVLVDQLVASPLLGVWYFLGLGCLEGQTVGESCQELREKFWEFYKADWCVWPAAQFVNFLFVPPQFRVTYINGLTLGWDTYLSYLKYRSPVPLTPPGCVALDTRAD
UniProt Q16643: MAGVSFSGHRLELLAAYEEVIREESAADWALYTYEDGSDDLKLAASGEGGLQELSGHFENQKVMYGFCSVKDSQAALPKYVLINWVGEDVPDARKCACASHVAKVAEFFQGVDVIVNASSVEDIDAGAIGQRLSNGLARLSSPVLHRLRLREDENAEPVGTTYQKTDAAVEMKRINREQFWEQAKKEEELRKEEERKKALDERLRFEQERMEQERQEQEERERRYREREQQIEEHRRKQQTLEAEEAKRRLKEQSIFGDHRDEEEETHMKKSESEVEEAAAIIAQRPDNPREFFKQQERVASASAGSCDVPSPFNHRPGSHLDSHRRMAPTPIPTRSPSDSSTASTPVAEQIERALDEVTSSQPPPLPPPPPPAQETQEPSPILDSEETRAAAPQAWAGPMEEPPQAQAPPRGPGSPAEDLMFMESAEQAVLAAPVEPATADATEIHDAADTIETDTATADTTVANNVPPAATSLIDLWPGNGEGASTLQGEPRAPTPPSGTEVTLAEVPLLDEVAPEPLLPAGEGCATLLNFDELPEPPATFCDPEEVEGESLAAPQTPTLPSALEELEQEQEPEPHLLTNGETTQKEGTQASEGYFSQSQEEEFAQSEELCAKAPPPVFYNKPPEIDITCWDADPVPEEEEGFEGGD
UniProt Q16851: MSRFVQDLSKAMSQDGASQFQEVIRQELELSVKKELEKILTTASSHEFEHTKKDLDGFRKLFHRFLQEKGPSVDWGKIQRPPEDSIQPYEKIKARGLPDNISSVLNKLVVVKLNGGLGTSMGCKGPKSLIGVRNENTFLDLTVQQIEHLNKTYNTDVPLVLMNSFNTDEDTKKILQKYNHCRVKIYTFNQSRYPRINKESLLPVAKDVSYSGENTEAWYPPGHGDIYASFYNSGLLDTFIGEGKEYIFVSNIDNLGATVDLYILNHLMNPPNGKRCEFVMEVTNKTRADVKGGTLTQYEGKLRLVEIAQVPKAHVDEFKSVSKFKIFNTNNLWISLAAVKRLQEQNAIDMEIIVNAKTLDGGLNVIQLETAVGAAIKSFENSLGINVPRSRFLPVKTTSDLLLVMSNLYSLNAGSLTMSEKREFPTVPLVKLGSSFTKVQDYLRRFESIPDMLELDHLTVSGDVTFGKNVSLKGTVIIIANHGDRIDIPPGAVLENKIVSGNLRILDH
UniProt Q49MG5: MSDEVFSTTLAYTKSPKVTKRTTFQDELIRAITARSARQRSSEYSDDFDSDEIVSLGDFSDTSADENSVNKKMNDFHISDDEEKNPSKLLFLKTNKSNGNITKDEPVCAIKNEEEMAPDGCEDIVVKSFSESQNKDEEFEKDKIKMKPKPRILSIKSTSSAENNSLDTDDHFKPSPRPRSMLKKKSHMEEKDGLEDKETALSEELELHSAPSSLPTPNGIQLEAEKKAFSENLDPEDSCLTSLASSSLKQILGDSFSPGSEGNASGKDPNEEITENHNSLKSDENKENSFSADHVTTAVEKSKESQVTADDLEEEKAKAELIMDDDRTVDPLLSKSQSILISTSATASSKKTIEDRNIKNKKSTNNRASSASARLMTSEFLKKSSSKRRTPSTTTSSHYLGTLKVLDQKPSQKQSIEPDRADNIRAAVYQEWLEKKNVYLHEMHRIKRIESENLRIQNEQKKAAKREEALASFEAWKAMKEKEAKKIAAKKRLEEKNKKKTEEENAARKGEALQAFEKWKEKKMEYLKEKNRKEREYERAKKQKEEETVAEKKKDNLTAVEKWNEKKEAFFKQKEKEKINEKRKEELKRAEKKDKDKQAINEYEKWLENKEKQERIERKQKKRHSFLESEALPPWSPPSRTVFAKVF

Compound in this assay: COC(=O)/C=C/c1ccccc1 [methyl cinnamate]
The assay is described as follows: log2 ratio of iodoacetamide-alkyne labeling of the cysteine site, DMSO over compound (competition); higher = stronger covalent engagement of the cysteine by the compound, active = 1 or more. The note with it: 500 µM; treatment time 1 h; system: HEK293T cell lysate. The procedure, abridged:
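HEK293T lysate (2 mg/mL) was treated with DMSO or electrophile (500 µM, 1 h, ambient temperature), then iodoacetamide alkyne (1 h), clicked to sCIP-TMT reagents, pooled, trypsin-digested overnight at 37 °C, streptavidin-enriched and acid-eluted. Peptides were run on Orbitrap Eclipse LC-MS/MS with FAIMS and quantified in FragPipe. The log2 competition ratio per cysteine is mean control-channel over mean compound-channel reporter intensity. Duplicate channels and three replicates were used, and cysteines quantified in only one replicate were excluded.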
For SF3B4 C168 (UniProt Q15427), the “log2 ratio of iodoacetamide-alkyne labeling” value (“log2 ratio” for short) was inactive: 0.00642.
The same measure for LRRFIP1 C750 (UniProt Q32MZ4): inactive: 0.0825; for PCBP2 C301 (UniProt Q15366): inactive: 0.122; for ANKRD39 C168 (UniProt Q53RE8): inactive: 0.224.
The same measure for FASTKD1 C46 (UniProt Q53R41): inactive: 0.228.
The same measure for UniProt Q15365_C293: inactive: 0.0149; for LLGL1 C947 (UniProt Q15334): inactive: -0.182; for AMOT C617 (UniProt Q4VCS5): inactive: 0.0451.
For UniProt Q15365_C355, the “log2 ratio” value is inactive: 0.222.
Turning to FLYWCH1 C173 (UniProt Q4VC44), the “log2 ratio” value is inactive: -0.052.
Regarding HNRNPUL2 C602 (UniProt Q1KMD3), the “log2 ratio” value is inactive: 0.376.
On to UniProt Q15365_C194, for which the “log2 ratio” value was inactive: 0.0881.
The same measure for MED1 C324 (UniProt Q15648): inactive: 0.246; for EXOSC7 C85 (UniProt Q15024): inactive: 0.107; for IAH1 C137 (UniProt Q2TAA2): inactive: -0.103.
The same measure for PCK2 C431 (UniProt Q16822): inactive: -0.11; for UniProt Q15365_C109: inactive: 0.141; for CDK10 C8 (UniProt Q15131): inactive: 0.232.
The result for FAM98C C287 (UniProt Q17RN3) reads inactive: 0.171; that for UniProt Q15475_C130, inactive: 0.269; that for TRIP6 C387 (UniProt Q15654), inactive: -0.0561.
UniProt Q567V2_C198: the “log2 ratio” value was inactive: 0.133.
The result for IAH1 C9 (UniProt Q2TAA2) reads inactive: 0.429; that for PCM1 C876 (UniProt Q15154), inactive: 0.151; that for UniProt Q15042_C335, inactive: -0.0697.
As to SMAD2 C41 (UniProt Q15796), the “log2 ratio” value was inactive: 0.325.
The result for UniProt Q15365_C163 reads inactive: 0.0924; that for DBN1 C613 (UniProt Q16643), inactive: -0.156.
The same measure for UGP2 C123 (UniProt Q16851): inactive: 0.283.
The result for UniProt Q15042_C678 reads inactive: -0.142.
Consider DPYSL2 C504 (UniProt Q16555), for which the “log2 ratio” value was inactive: 0.034.
The result for HSDL1 C328 (UniProt Q3SXM5) reads inactive: 0.239; that for CCDC93 C282 (UniProt Q567U6), inactive: -0.0896.
The same measure for TWISTNB C5 (UniProt Q3B726): inactive: 0.461.
The same measure for UniProt Q49MG5_C239: inactive: 0.202; for PTGES3 C58 (UniProt Q15185): inactive: 0.231.
Turning to UniProt Q15418_C552, the “log2 ratio” value is inactive: 0.104.

The values above are taken from the supplement of paper PMC11006884.
